Assay [1] has as its target Recombinant human glypican-3 (aa 1-559), His-tagged (R&D Systems) (human) (UniProt P51654). Description: SPR (Biacore T100).
Assay [2] deals with Human glypican-3 protein, construct not stated (recombinant GPC3 of the ELISA, selection target, human glypican-3-biotin) (human) (UniProt P51654). Description: PROfusion (mRNA display) selection under high stringency.

Amino acid sequences for entries named in this document (tags omitted). A change or cut given only in a name is not applied to a line headed by its entry.
UniProt P51654: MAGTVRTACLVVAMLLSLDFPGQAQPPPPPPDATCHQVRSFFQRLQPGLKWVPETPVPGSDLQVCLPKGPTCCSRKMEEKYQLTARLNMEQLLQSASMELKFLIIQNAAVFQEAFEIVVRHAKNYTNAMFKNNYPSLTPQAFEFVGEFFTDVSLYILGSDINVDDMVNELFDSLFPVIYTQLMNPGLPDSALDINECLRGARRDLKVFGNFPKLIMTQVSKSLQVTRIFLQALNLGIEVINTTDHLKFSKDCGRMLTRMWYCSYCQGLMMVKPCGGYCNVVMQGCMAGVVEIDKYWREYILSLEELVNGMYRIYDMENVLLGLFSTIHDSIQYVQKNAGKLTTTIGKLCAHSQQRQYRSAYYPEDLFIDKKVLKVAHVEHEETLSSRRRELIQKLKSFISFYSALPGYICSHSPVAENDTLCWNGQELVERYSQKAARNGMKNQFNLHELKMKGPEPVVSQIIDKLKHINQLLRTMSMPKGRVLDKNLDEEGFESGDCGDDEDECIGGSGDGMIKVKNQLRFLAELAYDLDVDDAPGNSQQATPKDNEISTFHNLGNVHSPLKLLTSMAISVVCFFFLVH

No constants are given. Whether binding was seen depends on the method and setting. Some entries that bind do so weakly or less than the wild type.

B1: 6077_F02.dPEG (designed binder)
chain: MGVSDVPRDLEVVAATPTSLLISWSDDYHAHRYYRITYGETGGNSPVQEFTVPGEHVTATISGLKPGVDYTITVYAVTYDGEKAATDWSISINYRTPCHHHHHH
modifications: dPEG (site and size not stated)
B1: in assay [1], the binding entry was “binds”.

B2: 6077_F02-PEG3.4 (designed binder)
chain: MGVSDVPRDLEVVAATPTSLLISWSDDYHAHRYYRITYGETGGNSPVQEFTVPGEHVTATISGLKPGVDYTITVYAVTYDGEKAATDWSISINYRTPCHHHHHH
modifications: PEG3.4 (site not stated)
Consider B2, for which the binding result in assay [1] is “binds”.

B3: ADX_6077_F02 (designed binder)
chain: MGVSDVPRDLEVVAATPTSLLISWSDDYHAHRYYRITYGETGGNSPVQEFTVPGEHVTATISGLKPGVDYTITVYAVTYDGEKAATDWSISINYRTPCHHHHHH
In the case of B3, in assay [2], the binding result is “binds”.

B4: ADX_6077_F02 DG→SG mutant, alkylated (designed binder)
chain: VSDVPRDLEVVAATPTSLLISWSDDYHAHRYYRITYGETGGNSPVQEFTVPGEHVTATISGLKPGVDYTITVYAVTYSGEKAATDWSISINYRTPC
modifications: C-terminal cysteine alkylated
Turning to B4, the binding result in assay [1] is on record as “binds”.

The values are drawn from patent US20190077844A1.
